Experimental data reported in US6846826B2, “Phenoxypropanol connected with phenylpiperazine and phenoxyalkylamine terminal in its side chain” (priority 2001, dated 2005).

Columns and labels:
[1] = test system: α1; test: Isolated Wistar rat thoracic aorta, antagonism of norepinephrine contraction (Schild plot)
Method: (§1) After sacrificing Wistar rat of weight between 200˜300 gm, the thoracic aorta was immediately removed and placed in cold Kreb's solution. The fatty connecting tissue surrounding the vessel wall was removed and the thoracic aorta was cut into rings of length 5 mm. The two ends of each ring was pieced and fixed with “Z” shaped platinum wires. Then the thoracic aorta was suspended in 10 ml of tissue bath, aerated with air mixture (95% O2+5% CO2) and maintained at 37° C., where one end was fixed at the bottom of tissue trough, the other end connected to force transducer to record the long contraction via recorder. The sample was given 1 gm of tension and equilibrated for 60 minutes before the following experiments were carried out.
After thoracic aorta had reached equilibrium in the tissue trough, cumulative administration of norepinephrine from 10^−10˜3×10^−4 M caused the blood vessel contract to increase tension continuously, and a cumulative dose-response curve was obtained. Then the norepinephrine was thoroughly washed off with Kreb's solution to recover the aorta stability. After the equilibrum was reached again for at least 60 minutes, different concentrations as 10^−7, 10^−6, 10^−5 M of test compounds were added. 30 minutes later, cumulative administration of norepinephrine from […] were carried out again, and another new cumulative dose-response curve was obtained. Administration of norepinephrine started from concentration 1×10^−10 M, and the concentration was raised 0.5 log each time. Cumulative administration interval was when the previous concentration reached its greatest effect, the next concentration would be immediately given. The time interval was approximately 3˜5 minutes, and the EC50 value could be obtained. From Schild plots, the pA2 of test compounds could be found. Calculation of pA2 value: similar to calculation method on isolated right atrium.

[2] = test system: Calcium; test: Isolated Wistar rat thoracic aorta, antagonism of CaCl2-induced contraction; conditions: vs CaCl2
Method: as §1
After thoracic aorta had reached equilibrium in the tissue trough, cumulative administration of CaCl2 from […] caused the blood vessel contract to increase tension continuously, and a cumulative dose-response curve was obtained. Then the CaCl2 was thoroughly washed off with Kreb's solution to recover the aorta stability. After the equilibrum was reached again for at east 60 minutes, different concentrations as 10^−8, 10^−7, 10^−6 M of test compounds were added. 30 minutes later, cumulative administration of CaCl2 from 3×10^−5˜10^−2 M were carried out again, and another new cumulative dose-response curve was obtained. Cumulative administration interval was when the previous concentration reached its greatest effect, the next concentration would be immediately given. The time interval was approximately 3˜5 minutes, and the EC50 value could be obtained. From Schild plots, the pA2 of test compounds could be found. Calculation of pA2 value: similar to calculation method on isolated right atrium.

SMILES	α1 Slope of Schild plot, Aorta [1]	Calcium Slope of Schild plot, Aorta [2]
COC(=O)C1=C(C)NC(C)=C(C(=O)OC)C1c1ccc(OCC(O)CNCCOc2ccccc2OC)cc1 (centres unmarked) [Labedipinedilol-B]	(1.01 ± 0.06)	(0.78 ± 0.07)
COC(=O)C1=C(C)NC(C)=C(C(=O)OC)C1c1ccc(OCC(O)CN2CCN(c3ccccc3Cl)CC2)c(OC)c1 (centres unmarked) [Labedipinedilol-C]	(0.88 ± 0.04)	(0.64 ± 0.07)
COC(=O)C1=C(C)NC(C)=C(C(=O)OC)C1c1ccc(OCC(O)CNCCOc2ccccc2C)c(OC)c1 (centres unmarked) [Labedipinedilol-D]	(0.90 ± 0.07)	(0.39 ± 0.05)
COC(=O)C1=C(C)NC(C)=C(C(=O)OC)C1c1ccc(OCC(O)CNCCOc2ccccc2Cl)c(OC)c1 (centres unmarked) [Labedipinedilol-E]	(0.78 ± 0.07)	(0.47 ± 0.06)
